Source: the supplement of paper PMC10849652
Some of the results follow.

Chains of the proteins cited; added tags and fusions are not shown. Lines headed by an entry give the natural chain unless they say otherwise; changes in a name come on top.
UniProt Q9Y3D2: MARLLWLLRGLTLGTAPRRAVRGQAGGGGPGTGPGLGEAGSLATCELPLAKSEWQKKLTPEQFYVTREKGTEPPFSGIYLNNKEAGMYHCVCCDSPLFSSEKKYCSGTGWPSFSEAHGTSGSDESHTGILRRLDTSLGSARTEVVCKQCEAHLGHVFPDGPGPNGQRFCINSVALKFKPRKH
UniProt Q969V6: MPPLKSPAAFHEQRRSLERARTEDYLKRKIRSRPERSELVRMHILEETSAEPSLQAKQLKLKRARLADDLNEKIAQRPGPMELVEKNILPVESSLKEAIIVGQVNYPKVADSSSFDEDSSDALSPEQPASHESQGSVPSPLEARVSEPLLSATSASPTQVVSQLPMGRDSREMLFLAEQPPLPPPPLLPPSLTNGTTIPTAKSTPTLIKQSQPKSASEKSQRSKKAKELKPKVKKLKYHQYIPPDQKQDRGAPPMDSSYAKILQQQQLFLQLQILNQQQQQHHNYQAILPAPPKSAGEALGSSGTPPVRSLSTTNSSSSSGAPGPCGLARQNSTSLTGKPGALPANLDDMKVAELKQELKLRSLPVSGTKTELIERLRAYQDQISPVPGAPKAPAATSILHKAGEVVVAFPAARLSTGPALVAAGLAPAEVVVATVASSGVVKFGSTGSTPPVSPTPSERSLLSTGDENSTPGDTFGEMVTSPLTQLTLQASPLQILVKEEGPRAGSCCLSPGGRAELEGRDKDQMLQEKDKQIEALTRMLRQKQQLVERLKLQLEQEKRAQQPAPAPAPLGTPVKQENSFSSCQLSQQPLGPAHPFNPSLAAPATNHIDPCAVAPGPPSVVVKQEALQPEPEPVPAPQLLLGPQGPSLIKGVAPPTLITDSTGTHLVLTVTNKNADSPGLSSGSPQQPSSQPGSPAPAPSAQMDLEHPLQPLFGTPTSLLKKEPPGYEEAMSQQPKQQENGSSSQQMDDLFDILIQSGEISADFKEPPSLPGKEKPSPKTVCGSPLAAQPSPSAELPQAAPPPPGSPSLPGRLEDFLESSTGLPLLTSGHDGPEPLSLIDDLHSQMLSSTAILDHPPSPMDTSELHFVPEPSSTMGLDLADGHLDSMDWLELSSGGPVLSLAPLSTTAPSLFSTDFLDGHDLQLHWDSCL
UniProt Q9BT17: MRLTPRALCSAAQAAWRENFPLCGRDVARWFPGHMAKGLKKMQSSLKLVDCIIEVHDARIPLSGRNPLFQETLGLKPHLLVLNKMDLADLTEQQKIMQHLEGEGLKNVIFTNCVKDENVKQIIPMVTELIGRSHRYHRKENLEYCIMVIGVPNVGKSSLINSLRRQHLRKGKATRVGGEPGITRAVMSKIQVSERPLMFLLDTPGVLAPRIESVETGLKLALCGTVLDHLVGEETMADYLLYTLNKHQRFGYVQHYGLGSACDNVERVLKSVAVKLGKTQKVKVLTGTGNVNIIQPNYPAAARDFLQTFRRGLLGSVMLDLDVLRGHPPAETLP
UniProt Q9UGC7: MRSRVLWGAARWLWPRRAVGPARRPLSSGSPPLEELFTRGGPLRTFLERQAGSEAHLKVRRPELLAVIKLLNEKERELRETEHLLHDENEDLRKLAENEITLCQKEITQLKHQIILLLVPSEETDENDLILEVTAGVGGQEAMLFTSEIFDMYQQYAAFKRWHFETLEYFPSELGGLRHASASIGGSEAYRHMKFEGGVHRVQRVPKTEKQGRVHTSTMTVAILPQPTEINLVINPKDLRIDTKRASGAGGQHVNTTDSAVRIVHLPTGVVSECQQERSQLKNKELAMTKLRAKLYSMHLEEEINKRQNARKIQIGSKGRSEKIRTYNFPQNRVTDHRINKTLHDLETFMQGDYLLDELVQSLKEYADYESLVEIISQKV
UniProt P49914: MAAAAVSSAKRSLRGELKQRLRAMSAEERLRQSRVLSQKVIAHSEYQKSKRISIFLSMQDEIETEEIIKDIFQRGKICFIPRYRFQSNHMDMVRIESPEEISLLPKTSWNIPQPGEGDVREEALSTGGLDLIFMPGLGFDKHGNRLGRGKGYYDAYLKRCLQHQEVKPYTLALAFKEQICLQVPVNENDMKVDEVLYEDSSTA
UniProt Q99417: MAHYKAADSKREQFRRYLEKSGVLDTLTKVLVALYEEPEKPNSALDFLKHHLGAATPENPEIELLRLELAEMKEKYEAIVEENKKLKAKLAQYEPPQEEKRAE
UniProt Q96DH6: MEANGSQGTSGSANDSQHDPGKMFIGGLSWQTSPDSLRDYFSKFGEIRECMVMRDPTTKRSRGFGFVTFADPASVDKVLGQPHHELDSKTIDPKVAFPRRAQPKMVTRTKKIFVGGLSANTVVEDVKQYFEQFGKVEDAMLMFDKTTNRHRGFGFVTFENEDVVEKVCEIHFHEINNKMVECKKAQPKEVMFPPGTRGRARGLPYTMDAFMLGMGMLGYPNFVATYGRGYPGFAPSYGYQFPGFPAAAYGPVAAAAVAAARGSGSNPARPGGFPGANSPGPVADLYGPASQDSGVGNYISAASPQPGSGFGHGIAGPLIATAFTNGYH
UniProt P52701: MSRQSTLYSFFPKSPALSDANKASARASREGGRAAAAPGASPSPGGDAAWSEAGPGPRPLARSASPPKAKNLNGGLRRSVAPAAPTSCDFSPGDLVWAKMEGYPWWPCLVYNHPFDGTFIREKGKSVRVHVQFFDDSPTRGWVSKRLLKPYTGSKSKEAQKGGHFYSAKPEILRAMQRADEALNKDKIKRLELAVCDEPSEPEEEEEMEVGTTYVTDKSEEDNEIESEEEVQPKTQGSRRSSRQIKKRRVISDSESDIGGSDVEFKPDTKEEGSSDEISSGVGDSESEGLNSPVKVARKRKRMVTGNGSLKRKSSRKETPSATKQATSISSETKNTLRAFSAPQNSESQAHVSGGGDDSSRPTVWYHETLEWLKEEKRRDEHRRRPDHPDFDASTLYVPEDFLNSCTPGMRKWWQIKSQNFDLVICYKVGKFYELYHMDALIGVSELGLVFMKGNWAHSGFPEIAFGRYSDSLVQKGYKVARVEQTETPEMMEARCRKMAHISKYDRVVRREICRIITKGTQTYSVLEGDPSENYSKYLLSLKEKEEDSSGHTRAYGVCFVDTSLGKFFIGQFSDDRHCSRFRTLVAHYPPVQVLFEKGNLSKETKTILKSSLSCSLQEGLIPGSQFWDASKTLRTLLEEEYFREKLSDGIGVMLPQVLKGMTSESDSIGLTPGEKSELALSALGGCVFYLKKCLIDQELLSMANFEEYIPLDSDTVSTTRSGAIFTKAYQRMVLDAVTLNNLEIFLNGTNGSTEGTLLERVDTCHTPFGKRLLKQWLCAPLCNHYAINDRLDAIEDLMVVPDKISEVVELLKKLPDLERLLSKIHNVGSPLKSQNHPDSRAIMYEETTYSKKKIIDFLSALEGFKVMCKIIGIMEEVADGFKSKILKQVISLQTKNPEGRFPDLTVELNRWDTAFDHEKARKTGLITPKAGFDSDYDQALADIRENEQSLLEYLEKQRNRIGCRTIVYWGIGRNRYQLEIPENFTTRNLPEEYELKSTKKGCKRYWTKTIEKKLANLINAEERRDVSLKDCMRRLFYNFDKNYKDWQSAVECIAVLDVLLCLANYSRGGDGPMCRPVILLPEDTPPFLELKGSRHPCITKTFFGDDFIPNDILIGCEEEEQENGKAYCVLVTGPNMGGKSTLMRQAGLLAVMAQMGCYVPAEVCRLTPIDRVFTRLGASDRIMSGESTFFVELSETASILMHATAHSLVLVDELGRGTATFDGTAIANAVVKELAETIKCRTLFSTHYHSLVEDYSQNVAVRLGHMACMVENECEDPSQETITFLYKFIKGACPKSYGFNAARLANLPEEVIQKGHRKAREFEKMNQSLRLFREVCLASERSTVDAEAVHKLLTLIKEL
UniProt Q9Y6C9: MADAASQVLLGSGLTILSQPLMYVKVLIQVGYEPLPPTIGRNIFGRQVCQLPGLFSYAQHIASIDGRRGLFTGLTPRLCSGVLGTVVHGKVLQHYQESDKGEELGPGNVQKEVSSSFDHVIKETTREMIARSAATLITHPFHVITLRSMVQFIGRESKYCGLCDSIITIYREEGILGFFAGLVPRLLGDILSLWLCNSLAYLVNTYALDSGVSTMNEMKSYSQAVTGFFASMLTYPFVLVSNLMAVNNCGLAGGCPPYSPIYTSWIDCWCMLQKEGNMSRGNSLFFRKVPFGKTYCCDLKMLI
UniProt P03915, whole entry, looked up: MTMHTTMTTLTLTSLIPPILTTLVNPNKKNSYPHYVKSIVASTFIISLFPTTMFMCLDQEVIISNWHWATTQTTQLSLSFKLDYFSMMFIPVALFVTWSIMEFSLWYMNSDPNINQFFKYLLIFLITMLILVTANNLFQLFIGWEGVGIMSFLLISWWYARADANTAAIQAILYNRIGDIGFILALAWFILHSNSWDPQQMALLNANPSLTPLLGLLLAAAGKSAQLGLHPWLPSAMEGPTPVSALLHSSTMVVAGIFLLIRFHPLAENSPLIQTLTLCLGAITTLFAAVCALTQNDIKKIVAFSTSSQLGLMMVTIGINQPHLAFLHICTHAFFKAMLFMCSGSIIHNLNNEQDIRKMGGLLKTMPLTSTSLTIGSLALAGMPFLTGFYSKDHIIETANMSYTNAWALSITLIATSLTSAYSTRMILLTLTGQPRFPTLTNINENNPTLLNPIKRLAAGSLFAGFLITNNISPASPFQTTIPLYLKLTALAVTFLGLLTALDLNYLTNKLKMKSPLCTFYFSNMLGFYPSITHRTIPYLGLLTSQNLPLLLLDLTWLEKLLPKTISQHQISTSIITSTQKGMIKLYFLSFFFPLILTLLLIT
UniProt P20585: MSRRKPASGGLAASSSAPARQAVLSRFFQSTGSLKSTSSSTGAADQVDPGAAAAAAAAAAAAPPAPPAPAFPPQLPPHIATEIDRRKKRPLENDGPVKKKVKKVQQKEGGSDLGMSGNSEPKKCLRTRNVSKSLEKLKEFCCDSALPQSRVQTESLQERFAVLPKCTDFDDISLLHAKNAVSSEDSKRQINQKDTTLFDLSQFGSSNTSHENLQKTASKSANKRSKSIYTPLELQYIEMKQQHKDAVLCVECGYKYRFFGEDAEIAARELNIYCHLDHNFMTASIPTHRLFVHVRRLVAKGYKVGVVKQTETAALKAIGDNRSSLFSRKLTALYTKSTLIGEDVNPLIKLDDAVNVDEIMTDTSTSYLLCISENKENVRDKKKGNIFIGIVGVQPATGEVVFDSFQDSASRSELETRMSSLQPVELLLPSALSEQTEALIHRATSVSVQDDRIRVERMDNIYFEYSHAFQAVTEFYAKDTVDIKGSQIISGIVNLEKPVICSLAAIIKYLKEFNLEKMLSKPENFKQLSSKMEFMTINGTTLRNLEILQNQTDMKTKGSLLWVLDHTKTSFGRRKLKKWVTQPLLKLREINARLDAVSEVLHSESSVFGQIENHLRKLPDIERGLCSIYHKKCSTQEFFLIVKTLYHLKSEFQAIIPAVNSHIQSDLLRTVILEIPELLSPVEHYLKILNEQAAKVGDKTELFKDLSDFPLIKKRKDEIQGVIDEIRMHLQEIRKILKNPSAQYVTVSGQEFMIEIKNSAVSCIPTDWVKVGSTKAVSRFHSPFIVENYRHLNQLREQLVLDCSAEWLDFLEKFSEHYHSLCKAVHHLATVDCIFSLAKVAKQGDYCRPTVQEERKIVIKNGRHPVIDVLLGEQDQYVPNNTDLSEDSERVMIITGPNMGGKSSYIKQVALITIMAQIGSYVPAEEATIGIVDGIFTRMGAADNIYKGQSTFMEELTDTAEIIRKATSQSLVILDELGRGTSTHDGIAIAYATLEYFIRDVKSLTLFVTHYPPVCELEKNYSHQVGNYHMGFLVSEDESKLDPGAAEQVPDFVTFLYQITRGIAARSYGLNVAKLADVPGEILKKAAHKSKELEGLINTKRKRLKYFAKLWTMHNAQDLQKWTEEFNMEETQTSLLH
UniProt P03886, whole entry, looked up: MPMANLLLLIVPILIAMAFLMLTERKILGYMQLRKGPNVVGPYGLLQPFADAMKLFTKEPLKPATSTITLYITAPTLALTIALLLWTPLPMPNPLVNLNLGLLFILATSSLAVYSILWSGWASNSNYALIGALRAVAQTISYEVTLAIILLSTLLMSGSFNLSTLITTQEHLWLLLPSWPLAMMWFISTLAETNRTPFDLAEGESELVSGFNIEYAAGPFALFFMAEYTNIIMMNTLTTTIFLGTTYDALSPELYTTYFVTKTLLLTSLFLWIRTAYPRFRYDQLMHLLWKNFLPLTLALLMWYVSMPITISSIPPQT
UniProt P00156: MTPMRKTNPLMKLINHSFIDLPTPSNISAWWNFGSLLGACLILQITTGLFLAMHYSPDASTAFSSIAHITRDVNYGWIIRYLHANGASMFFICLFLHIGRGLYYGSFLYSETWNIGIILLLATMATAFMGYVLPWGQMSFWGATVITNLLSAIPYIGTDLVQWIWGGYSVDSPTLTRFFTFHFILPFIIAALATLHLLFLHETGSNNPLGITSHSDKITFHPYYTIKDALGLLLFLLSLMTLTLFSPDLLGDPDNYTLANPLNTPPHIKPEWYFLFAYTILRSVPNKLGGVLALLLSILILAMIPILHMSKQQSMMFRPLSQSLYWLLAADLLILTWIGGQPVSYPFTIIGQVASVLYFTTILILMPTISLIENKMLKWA

Legend:
Test in all cases: log2 fold change, soluble protein after heating vs DMSO (PISA); higher = thermal stabilisation; K562 cells, 10 uM, 30 min; active = over 0.2 and 3.5 SD of the protein, either way, in both replicates (recomputed)
[1] = compound: C#Cc1cccc(Nc2ncnc3cc(OCCOC)c(OCCOC)cc23)c1 [erlotinib]
Outline: (§1)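 Soluble protein was defined as the supernatant after 21,000xg for 90 min. It came from K562 cells at 2×10^6 cells/mL given 10 μM compound for 30 min, heated in aliquots for 3 min across 48°C-58°C, pooled, and extracted in PBS with 0.5% NP-40 at 4°C, and was quantified by TMTpro 16plex LC-MS/MS with equalised channel sums. Thermal stability against control samples, from duplicates, is reported as log2 fold change.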

[2] = compound: C/C(=N\NC(=O)C1=CC(=CC=C1)S(=O)(=O)N2CCOCC2)/C3=C(C=CC(=C3)Cl)O
Outline: as §1

[3] = compound: C1=CC(=C(C=C1Cl)C2=NC3=NC=CN=C3C(=N2)NC4=CC=NC=C4)F
Outline: as §1

[4] = compound: C1=CC(=CC=C1C2=NC3=C(N2)C=C(C=C3)C(=O)N)OC4=CC=C(C=C4)Cl
Outline: as §1

[5] = compound: C1=CC2=C(C=CC(=C2)/C=C\3/C(=O)NC(=NCC4=CC=CS4)S3)N=C1
Outline: as §1

[6] = compound: C1=CC2=NC=CN=C2C=C1/C=C/3\C(=O)NC(=O)S3
Outline: as §1

[7] = compound: C1=CC=C(C=C1)C2=NC(=C(N2)C3=CC=NC=C3)C4=CC(=C(C=C4)Cl)O
Outline: as §1

[8] = compound: C1=CC=C2C(=C1)C3=NNC4=CC=CC(=C43)C2=O
Outline: as §1

[9] = compound: C1CCN(C1)C(=O)NC2=CC=CC(=C2)NC3=NC=C(C(=N3)NCCC4=CN=CN4)Br
Outline: as §1

[10] = compound: C1CN(CCC1(CC2=CC=C(C=C2)Cl)N)C3=NC=NC4=C3C=CN4
Outline: as §1

Measured: log2 fold change

MSRB2 (UniProt Q9Y3D2)
inactive: [1] -0.06 | [2] -0.007 | [3] -0.044 | [4] 0.007 | [5] 0.01 | [6] -0.032 | [7] 0.063 | [8] -0.043 | [9] -0.178 | [10] 0.029

MRPS18B (UniProt Q9Y676)
inactive: [1] 0.026 | [2] 0.101 | [3] -0.051 | [4] 0.124 | [5] 0.03 | [6] 0.034 | [7] 0.027 | [8] 0.119 | [9] 0.079 | [10] -0.119

MRPS16 (UniProt Q9Y3D3)
inactive: [1] -0.126 | [2] 0 | [3] -0.025 | [4] 0.159 | [5] 0.014 | [6] 0.079 | [7] 0.117 | [8] 0.044 | [9] -0.085 | [10] -0.097

MRPS31 (UniProt Q92665)
inactive: [1] 0.003 | [2] 0.001 | [3] -0.032 | [4] 0.105 | [5] -0.004 | [6] 0.023 | [7] 0.048 | [8] 0.064 | [9] 0.003 | [10] -0.066

MSTO1 (UniProt Q9BUK6)
inactive: [1] 0.031 | [2] 0.06 | [3] 0.075 | [4] -0.044 | [5] -0.003 | [6] 0.007 | [7] 0.038 | [8] 0.043 | [9] 0.011 | [10] -0.041

MRTFA (UniProt Q969V6)
inactive: [1] 0.058 | [2] -0.063 | [3] 0.002 | [4] 0.019 | [5] 0.065 | [6] 0.021 | [7] 0.017 | [8] -0.08 | [9] -0.063 | [10] 0.049

MTG1 (UniProt Q9BT17)
inactive: [1] 0.025 | [2] 0.024 | [3] -0.103 | [4] 0.041 | [5] -0.05 | [6] -0.044 | [7] 0.136 | [8] 0.05 | [9] -0.037 | [10] -0.077

MTRF1L (UniProt Q9UGC7)
inactive: [1] 0.038 | [2] 0.02 | [3] -0.099 | [4] -0.036 | [5] -0.007 | [6] 0.007 | [7] -0.01 | [8] 0.01 | [9] 0.073 | [10] 0.152

MTFR2 (UniProt Q6P444)
inactive: [1] 0.132 | [2] -0.01 | [3] -0.034 | [4] -0.049 | [5] -0.114 | [6] 0.087 | [7] 0.012 | [8] -0.11 | [9] 0.036 | [10] -0.042

MTHFS (UniProt P49914)
inactive: [1] 0.01 | [2] 0.062 | [3] 0.055 | [4] -0.003 | [5] 0.034 | [6] -0.024 | [7] 0.026 | [8] 0.083 | [9] -0.014 | [10] -0.12

MYCBP (UniProt Q99417)
inactive: [1] -0.008 | [2] -0.068 | [3] 0.063 | [4] -0.026 | [5] 0.056 | [6] 0.048 | [7] -0.114 | [8] 0 | [9] 0.02 | [10] -0.049

MSI2 (UniProt Q96DH6)
inactive: [1] -0.025 | [2] -0.057 | [3] -0.173 | [4] 0.106 | [5] 0.028 | [6] 0.034 | [7] -0.079 | [8] -0.066 | [9] 0.087 | [10] -0.034

MUCL1 (UniProt Q96DR8)
inactive: [1] 0.341 | [2] 0.113 | [3] -0.133 | [4] -0.258 | [5] 0.041 | [6] -0.087 | [7] 0.089 | [8] -0.369 | [9] -0.352 | [10] -0.567

MSH6 (UniProt P52701)
inactive: [1] 0.286 | [2] 0.224 | [3] 0.096 | [4] 0.002 | [5] 0.167 | [6] 0 | [7] 0.102 | [8] 0.137 | [9] -0.095 | [10] -0.143

MTCH2 (UniProt Q9Y6C9)
inactive: [1] 0.001 | [2] -0.038 | [3] 0.001 | [4] 0.029 | [5] 0.142 | [6] 0.015 | [7] 0.012 | [8] -0.046 | [9] 0.047 | [10] 0.03

MRPS17 (UniProt Q9Y2R5)
inactive: [1] -0.034 | [2] -0.019 | [3] -0.125 | [4] 0.142 | [5] -0.062 | [6] 0 | [7] 0.042 | [8] 0.088 | [9] -0.014 | [10] -0.126

MRPS2 (UniProt Q9Y399)
inactive: [1] 0.004 | [2] -0.064 | [3] -0.083 | [4] 0.052 | [5] 0.093 | [6] 0.01 | [7] 0.083 | [8] -0.033 | [9] -0.01 | [10] -0.112

MUC1, A0A087WWM1
inactive: [1] 0.02 | [2] -0.003 | [3] -0.037 | [4] 0.002 | [5] -0.037 | [6] 0.006 | [7] 0.006 | [8] -0.064 | [9] -0.045 | [10] 0.006

MT-ND5 (UniProt P03915)
inactive: [1] 0.04 | [2] -0.011 | [3] -0.019 | [4] 0.04 | [5] 0.016 | [6] 0.067 | [7] 0.011 | [8] -0.022 | [9] -0.026 | [10] 0.084

MTOR (UniProt P42345)
inactive: [1] 0.015 | [2] 0.041 | [3] 0.021 | [4] -0.011 | [5] 0.036 | [6] 0.047 | [7] 0.034 | [8] -0.004 | [9] 0.065 | [10] -0.03

MRPS24 (UniProt Q96EL2)
inactive: [1] -0.175 | [2] 0.022 | [3] -0.032 | [4] 0.062 | [5] 0.016 | [6] -0.02 | [7] 0.01 | [8] 0.039 | [9] 0.071 | [10] -0.1

MSH3 (UniProt P20585)
inactive: [1] 0.009 | [2] 0.031 | [3] 0.068 | [4] 0.017 | [5] 0.017 | [6] 0.03 | [7] 0.004 | [8] -0.039 | [9] 0.008 | [10] -0.045

MT-ND1 (UniProt P03886)
inactive: [1] -0.075 | [2] 0.031 | [3] -0.028 | [4] 0.097 | [5] -0.005 | [6] 0.032 | [7] 0.053 | [8] 0.12 | [9] -0.187 | [10] 0.018

MTHFD1L (UniProt Q6UB35)
inactive: [1] -0.031 | [2] 0.031 | [3] 0.049 | [4] 0.013 | [5] 0.05 | [6] 0.016 | [7] 0.029 | [8] 0.053 | [9] 0.003 | [10] 0.043

MRPS33 (UniProt Q9Y291)
inactive: [1] 0.023 | [2] -0.018 | [3] -0.129 | [4] 0.021 | [5] 0.019 | [6] 0.032 | [7] -0.043 | [8] 0.018 | [9] 0.026 | [10] -0.133

MYO18A (UniProt Q92614)
inactive: [1] 0.081 | [2] 0.07 | [3] -0.162 | [4] 0.073 | [5] 0.056 | [6] -0.103 | [7] -0.012 | [8] -0.13 | [9] 0.055 | [10] 0.061

MT-CYB (UniProt P00156)
inactive: [1] -0.102 | [2] 0.013 | [3] -0.271 | [4] 0.116 | [5] -0.016 | [6] 0.08 | [7] -0.04 | [8] 0.038 | [9] -0.117 | [10] 0.094

MRPS34 (UniProt P82930)
inactive: [1] -0.06 | [2] 0.062 | [3] -0.071 | [4] 0.092 | [5] -0.013 | [6] -0.065 | [7] 0.001 | [8] 0.036 | [9] 0.056 | [10] -0.129
